Publication PMC3749868, “Proteolytic processing of QSOX1A ensures efficient secretion of a potent disulfide catalyst” (Biochemical Journal, 2013)
Results are given in words; binding and its absence hold for the method and conditions named. In cells and extracts the contact can be indirect. Some entries that bind do so weakly or less than the wild type. Sequences can lack the tags named with a protein. Each block holds one binder with its values, some of them ahead of it.

Target: T1, QSOX1A–GFP (QSOX1A with a C-terminal GFP tag, uncleaved) (human) (UniProt O00391)
T1 sequence: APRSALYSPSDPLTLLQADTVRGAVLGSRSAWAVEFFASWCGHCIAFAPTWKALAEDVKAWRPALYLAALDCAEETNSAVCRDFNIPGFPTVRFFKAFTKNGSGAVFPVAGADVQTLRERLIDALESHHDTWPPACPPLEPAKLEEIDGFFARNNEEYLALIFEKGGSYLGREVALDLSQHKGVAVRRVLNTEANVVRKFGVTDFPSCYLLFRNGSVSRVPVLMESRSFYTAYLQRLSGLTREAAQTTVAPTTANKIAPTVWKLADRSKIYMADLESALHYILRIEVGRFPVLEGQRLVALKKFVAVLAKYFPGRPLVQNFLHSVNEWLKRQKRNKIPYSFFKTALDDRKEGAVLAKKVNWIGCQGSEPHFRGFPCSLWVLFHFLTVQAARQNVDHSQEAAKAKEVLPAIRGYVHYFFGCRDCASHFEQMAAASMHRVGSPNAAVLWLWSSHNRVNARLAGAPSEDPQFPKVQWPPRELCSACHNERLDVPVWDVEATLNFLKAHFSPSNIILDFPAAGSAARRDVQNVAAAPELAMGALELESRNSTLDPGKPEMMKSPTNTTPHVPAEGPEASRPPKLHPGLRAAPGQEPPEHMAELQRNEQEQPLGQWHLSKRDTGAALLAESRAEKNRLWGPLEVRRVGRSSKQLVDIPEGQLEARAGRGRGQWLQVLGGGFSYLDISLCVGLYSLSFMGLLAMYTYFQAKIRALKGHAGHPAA
Assay: co-IP; HT1080 co-transfected for 24 h, free thiols blocked with 20 mM NEM, lysed in RIPA buffer; GFP-Trap_A immunoisolation of QSOX1A–GFP, immunoblot with anti-V5 and anti-GFP

binding: binds
B1: QSOX1A–V5 (quiescin sulfhydryl oxidase 1, splice variant A, V5-tagged, uncleaved) (enzyme, human, UniProt O00391 30-747, looked up)
chain: T1 sequence
notes: human QSOX1A, the long splice variant of QSOX1 with 143 additional C-terminal amino acids including the single-pass TM domain; uncleaved (full-length) form; Membrane-integrated, V5 on the cytosolic side; also called V5-tagged QSOX1A; uncleaved QSOX1A–V5; source: HT1080, stably overexpressing (cross-linking in cells, SEC of lysate); HT1080, transiently co-transfected, in lysate (co-assembly); not …

binding: binds
B2: QSOX1B–V5 (quiescin sulfhydryl oxidase 1, splice variant B, V5-tagged) (enzyme, UniProt O00391-2 30-604)
chain: APRSALYSPSDPLTLLQADTVRGAVLGSRSAWAVEFFASWCGHCIAFAPTWKALAEDVKAWRPALYLAALDCAEETNSAVCRDFNIPGFPTVRFFKAFTKNGSGAVFPVAGADVQTLRERLIDALESHHDTWPPACPPLEPAKLEEIDGFFARNNEEYLALIFEKGGSYLGREVALDLSQHKGVAVRRVLNTEANVVRKFGVTDFPSCYLLFRNGSVSRVPVLMESRSFYTAYLQRLSGLTREAAQTTVAPTTANKIAPTVWKLADRSKIYMADLESALHYILRIEVGRFPVLEGQRLVALKKFVAVLAKYFPGRPLVQNFLHSVNEWLKRQKRNKIPYSFFKTALDDRKEGAVLAKKVNWIGCQGSEPHFRGFPCSLWVLFHFLTVQAARQNVDHSQEAAKAKEVLPAIRGYVHYFFGCRDCASHFEQMAAASMHRVGSPNAAVLWLWSSHNRVNARLAGAPSEDPQFPKVQWPPRELCSACHNERLDVPVWDVEATLNFLKAHFSPSNIILDFPAAGSAARRDVQNVAAAPELAMGALELESRNSTLDPGKPEMMKSPTNTTPHVPAEGPELI
